Measured values from PubChem BioAssay AID330 (DTP/NCI, 2004).
The list is a part of this screen's results and no random one: it is rich in T/C values a quarter to a half above the control, in often repeated tests (any T/C) and in doses without a T/C. Further doses and runs are listed elsewhere. T/C gives the treated animals as a percentage of the vehicle group. Some doses have a count of surviving animals in place of a T/C: the source holds a T/C of zero for them, seemingly a mark for toxic or unscored doses. Some doses without a T/C left all or most animals alive at the check, yet need not have been tolerated: survival well below the control is almost never listed, so the zero probably covers shortened survival too. Survivors were counted at the toxicity check, usually on the fifth day, unless a day is given; later deaths do not show. Schedule codes are those of the source, taken here to give the interval after Q, in days (D) or hours (H), and the number of doses after X. Some entries hold several experiments; the values are given in rising order. For survival time, this PubChem deposit counts one and a half times the control or more as active, and values a quarter to a half above the control carry no call in these data; other NCI protocols may use other cut-offs. Some T/C values carry the count of animals alive at the toxicity check (mostly the fifth day); where none is given, no animal had died by that day.

System: P388 leukemia ip, CD2F1 mice, survival T/C
Assay: NCI In Vivo Anticancer Drug Screen. Data for tumor model P388 Leukemia (intraperitoneal) in CD2F1 (CDF1) mice
Settings: T/C endpoint: median survival time, higher T/C = longer survival
[1] = dose: 200.0 mg/kg/injection, schedule: Q01DX005 (ip), vehicle: Klucel (hydroxypropylcellulose) (HPC)
[2] = dose: 200.0 mg/kg/injection, schedule: Q01DX005 (ip), vehicle: saline with Tween-80
[3] = dose: 50.0 mg/kg/injection, schedule: Q01DX009 (ip), vehicle: saline with Tween-80
[4] = dose: 100.0 mg/kg/injection, schedule: Q01DX009 (ip), vehicle: saline with Tween-80
[5] = dose: 400.0 mg/kg/injection, schedule: Q04DX003 (ip), vehicle: Klucel (hydroxypropylcellulose) (HPC)
[6] = dose: 12.5 mg/kg/injection, schedule: Q01DX009 (ip), vehicle: water
[7] = dose: 0.62 mg/kg/injection, schedule: Q01DX009 (ip), vehicle: Klucel (hydroxypropylcellulose) (HPC)
[8] = dose: 1.25 mg/kg/injection, schedule: Q01DX009 (ip), vehicle: Klucel (hydroxypropylcellulose) (HPC)

C=C1C(=O)O[C@@H]2[C@@H]3O[C@@](C)(CC[C@H](OC(C)=O)[C@@H]3CO)C[C@@H](OC(=O)/C(=C\C)COC(C)=O)[C@@H]12
survivor count (dose: 50.0 mg/kg/injection, schedule: Q01DX005 (ip), vehicle: Klucel (hydroxypropylcellulose) (HPC)): 1 of 6
survivor count (dose: 100.0 mg/kg/injection, schedule: Q01DX005 (ip), vehicle: Klucel (hydroxypropylcellulose) (HPC)): 0 of 6
survivor count [1]: 0 of 6

CC1=NOC(=O)/C1=C/c1ccc(Cl)c(Cl)c1
survivor count [2]: 0 of 6

O=C(Nc1ccccc1O)/C(Cl)=C/Cl
T/C (dose: 22.0 mg/kg/injection, schedule: Q01DX009 (ip), vehicle: saline with Tween-80): 125 % of control
T/C (dose: 25.0 mg/kg/injection, schedule: Q01DX009 (ip), vehicle: saline with Tween-80): 140 % of control
T/C [3]: 125 and 127 % of control
survivor count [4]: 3 of 6
survivor count (dose: 400.0 mg/kg/injection, schedule: Q04DX003 (ip), vehicle: saline with Tween-80): 5 of 6

O=C(CBr)N1c2ccccc2Sc2c1ccc1ccccc21
survivor count [5]: 0 of 6

O=C(C[n+]1ccccc1)c1ccccc1
survivor count (dose: 100.0 mg/kg/injection, schedule: Q01DX009 (ip), vehicle: saline): 1 of 6

CCCCCCCCCC(C)CC(=O)NCCCN(C)CCCCN(C)C (stereo not drawn) (tested in a mixture with another compound)
survivor count (dose: 25.0 mg/kg/injection, schedule: Q01DX009 (ip), vehicle: Klucel (hydroxypropylcellulose) (HPC)): 0 of 6
survivor count (dose: 50.0 mg/kg/injection, schedule: Q01DX009 (ip), vehicle: Klucel (hydroxypropylcellulose) (HPC)): 0 of 6
survivor count (dose: 100.0 mg/kg/injection, schedule: Q01DX009 (ip), vehicle: Klucel (hydroxypropylcellulose) (HPC)): 0 of 6
survivor count (dose: 200.0 mg/kg/injection, schedule: Q01DX009 (ip), vehicle: Klucel (hydroxypropylcellulose) (HPC)): 0 of 6

BrCC[P+](c1ccccc1)(c1ccccc1)c1ccccc1
T/C (dose: 1.3 mg/kg/injection, schedule: Q01DX009 (ip), vehicle: water): 127 % of control
T/C (dose: 2.0 mg/kg/injection, schedule: Q01DX009 (ip), vehicle: water): 125 % of control
T/C (dose: 3.13 mg/kg/injection, schedule: Q01DX009 (ip), vehicle: water): 127 % of control
survivor count (dose: 4.5 mg/kg/injection, schedule: Q01DX009 (ip), vehicle: water): 6 of 6
survivor count (dose: 6.8 mg/kg/injection, schedule: Q01DX009 (ip), vehicle: water): 4 of 6
survivor count [6]: 0 of 6
survivor count (dose: 25.0 mg/kg/injection, schedule: Q01DX009 (ip), vehicle: water): 0 of 6

CC(C)=CCC(OC1OC(CO)C(O)C(O)C1O)C1=CC(=O)c2c(O)ccc(O)c2C1=O (stereo not drawn)
survivor count (dose: 50.0 mg/kg/injection, schedule: Q04DX002 (ip), vehicle: saline with Tween-80): 0 of 6

CCCCCCCCCCNCCSSCc1ccccc1
survivor count (dose: 200.0 mg/kg/injection, schedule: Q04DX002 (ip), vehicle: Klucel (hydroxypropylcellulose) (HPC)): 3 of 5
survivor count (dose: 400.0 mg/kg/injection, schedule: Q04DX002 (ip), vehicle: Klucel (hydroxypropylcellulose) (HPC)): 4 of 5

CCn1c2ccccc2c2cc(N=Nc3cc4cc5ccccc5cc4cc3N)ccc21
survivor count [5]: 0 of 6

Cc1cccc(NC(=S)/N=C(\SCc2ccccc2)N(C)c2ccccc2)c1
survivor count [2]: 6 of 6

COc1cc2c(c(OC)c1OC)-c1ccc(SC)c(=O)cc1[C@@H](NC(=O)C(F)(F)F)CC2
T/C (dose: 0.31 mg/kg/injection, schedule: Q01DX009 (ip), vehicle: Klucel (hydroxypropylcellulose) (HPC)): 136 and 139 % of control
T/C (dose: 0.32 mg/kg/injection, schedule: Q01DX009 (ip), vehicle: Klucel (hydroxypropylcellulose) (HPC)): 126 % of control
T/C [7]: 148 % of control
survivor count [7]: 3 of 6
T/C (dose: 0.63 mg/kg/injection, schedule: Q01DX009 (ip), vehicle: Klucel (hydroxypropylcellulose) (HPC)): 143 % of control
T/C [8]: 136 % of control
survivor count [8]: 4 of 6 and 5 of 6
survivor count (dose: 2.5 mg/kg/injection, schedule: Q01DX009 (ip), vehicle: Klucel (hydroxypropylcellulose) (HPC)): 0 of 6
survivor count (dose: 5.0 mg/kg/injection, schedule: Q01DX009 (ip), vehicle: Klucel (hydroxypropylcellulose) (HPC)): 0 of 6
survivor count (dose: 10.0 mg/kg/injection, schedule: Q01DX009 (ip), vehicle: Klucel (hydroxypropylcellulose) (HPC)): 0 of 6

CC(=O)n1c2ccccc2c2c(C)c3c[n+]([O-])ccc3c(C)c21
T/C (dose: 100.0 mg/kg/injection, schedule: Q04DX002 (ip), vehicle: saline with Tween-80): 142 % of control

COc1cc2c(cc1C[N+](C)(C)CSc1ccccc1)-c1ccccc1CC2
survivor count (dose: 10.0 mg/kg/injection, schedule: Q01DX005 (ip), vehicle: DMSO): 2 of 6 and 3 of 6
survivor count (dose: 20.0 mg/kg/injection, schedule: Q01DX005 (ip), vehicle: DMSO): 0 of 6
survivor count (dose: 40.0 mg/kg/injection, schedule: Q01DX005 (ip), vehicle: DMSO): 0 of 6
survivor count (dose: 80.0 mg/kg/injection, schedule: Q01DX005 (ip), vehicle: DMSO): 0 of 6

COC(=O)c1ccc(=O)c2nc3/c(=C/O)c(O)c(C)c(=O)c3[nH]c12
survivor count (dose: 25.0 mg/kg/injection, schedule: Q01DX005 (ip), vehicle: other): 0 of 6
survivor count (dose: 50.0 mg/kg/injection, schedule: Q01DX005 (ip), vehicle: other): 0 of 6
survivor count (dose: 100.0 mg/kg/injection, schedule: Q01DX005 (ip), vehicle: other): 0 of 6

CSC(SC)=C1C(=O)NC(Cc2ccccc2)C1=O (stereo not drawn)
survivor count (dose: 50.0 mg/kg/injection, schedule: Q01DX005 (ip), vehicle: saline with Tween-80): 3 of 6
survivor count (dose: 100.0 mg/kg/injection, schedule: Q01DX005 (ip), vehicle: saline with Tween-80): 0 of 6
survivor count [2]: 0 of 6

CSC(C=P(c1ccccc1)(c1ccccc1)c1ccccc1)=Nc1ccccc1
survivor count [3]: 1 of 6
survivor count [4]: 0 of 6

CCOP(=O)(O)C1CCCC(C)[N-]1.CCOP(=O)(O)C1CCCC(C)[N-]1.[Fe+2] (stereo not drawn)
survivor count (dose: 200.0 mg/kg/injection, schedule: Q04DX003 (ip), vehicle: Klucel (hydroxypropylcellulose) (HPC)): 5 of 6
survivor count [5]: 6 of 6

COc1cccc2c1C(=O)c1c(O)c3c(c(O)c1C2=O)C[C@@](O)(C(C)=O)C[C@@H]3OC(=O)CCN
T/C (dose: 5.56 mg/kg/injection, schedule: Q01DX009 (ip), vehicle: water): 126 % of control
T/C (dose: 6.25 mg/kg/injection, schedule: Q01DX009 (ip), vehicle: water): 126 % of control
T/C [6]: 126 % of control

CN(CN1C(=O)CCC1=O)CN1C(=O)CCC1=O
T/C (dose: 120.0 mg/kg/injection, schedule: Q01DX005 (ip), vehicle: saline): 126 % of control
T/C (dose: 240.0 mg/kg/injection, schedule: Q01DX005 (ip), vehicle: saline): 138 % of control [5 of 6 alive]

Cn1nc(-c2cccc(F)c2)[n+](C)n1
survivor count (dose: 200.0 mg/kg/injection, schedule: Q01DX005 (ip), vehicle: saline): 4 of 5

Nc1c(Br)cc(Br)c2[nH]c(=O)c3ccccc3c12
survivor count (dose: 240.0 mg/kg/injection, schedule: Q01DX005 (ip), vehicle: saline with Tween-80): 4 of 6

CN(C)CCOc1cnc2ccc(Cl)cc2n1
survivor count [1]: 5 of 5

COc1cc(/C=C/C2=C(C)C(=O)CC(c3cc(OC)cc(OC)c3)C2C)cc(OC)c1 (stereo not drawn)
survivor count (dose: 75.0 mg/kg/injection, schedule: Q04DX003 (ip), vehicle: Klucel (hydroxypropylcellulose) (HPC)): 6 of 6
survivor count (dose: 150.0 mg/kg/injection, schedule: Q04DX003 (ip), vehicle: Klucel (hydroxypropylcellulose) (HPC)): 6 of 6
survivor count (dose: 300.0 mg/kg/injection, schedule: Q04DX003 (ip), vehicle: Klucel (hydroxypropylcellulose) (HPC)): 6 of 6

OCCSc1c(Cl)c(Cl)c(Cl)c(Cl)c1Cl
survivor count [3]: 6 of 6

CC(C)(C)OC(=O)O/N=C(\C#N)c1ccccc1
survivor count [4]: 6 of 6

COc1cccc(C(=O)CC[N+](C)(C)C)c1
survivor count [3]: 2 of 6
survivor count [4]: 0 of 6
survivor count (dose: 200.0 mg/kg/injection, schedule: Q01DX009 (ip), vehicle: saline with Tween-80): 0 of 6
